Experimental data: the supplement of paper PMC3334620
Whole data set: some 33,000 sequences, median “E-score (-0.5 to 0.5)” near -8e-05, cut for the highest 2% near 0.23. The list shows a part of the results.

Each sequence was assayed against T1, Nrg2 (UniProt P38082) (assay: PBM E-score (8-mer binding enrichment) (E-score (-0.5 to 0.5)); higher = stronger / more preferred TF binding). Conditions: protein concentration: 100 nM; construct: GST-full length.
T1 sequence: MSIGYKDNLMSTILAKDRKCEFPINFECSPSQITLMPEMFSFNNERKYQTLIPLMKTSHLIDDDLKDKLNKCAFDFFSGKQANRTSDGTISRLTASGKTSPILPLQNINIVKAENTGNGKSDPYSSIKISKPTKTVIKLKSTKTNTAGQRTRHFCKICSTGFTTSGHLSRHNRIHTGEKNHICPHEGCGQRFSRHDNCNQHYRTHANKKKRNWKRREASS
Procedure, shortened: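 Universal all-10-mer Agilent arrays, fresh or stripped once, were converted to double-stranded form by primer extension. GST-tagged yeast transcription factors from PURExpress in vitro transcription/translation, full-length or DNA-binding domain only, were applied at about 100-200 nM and detected with fluorescent anti-GST. After masliner normalisation, the Universal PBM Analysis Suite scored each ungapped eight-base word together with its reverse complement by E-score.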
In the case of AACGGGCC, the “PBM E-score” value is reported as -0.0959. With CAGAGAGC the “PBM E-score” value was -0.182. With ACTACGCA the “PBM E-score” value was -0.0904. With AGTGCATA the “PBM E-score” value was -0.134. With ATCTCCCC the “PBM E-score” value was -0.0893. For ACAAATTA, the “PBM E-score” value was 0.134. For ATGGGTCA, the “PBM E-score” value was -0.0805. In the case of AATGAAAC, the “PBM E-score” value is reported as 0.116. In the case of AACGCGGG, the “PBM E-score” value is reported as 0.209. In the case of CACCGAGG, the “PBM E-score” value is reported as -0.196. GATCAAGA was tested, and the “PBM E-score” value was -0.0644. In the case of CATCAGCC, the “PBM E-score” value is reported as 0.0269. In the case of ACCCTGGG, the “PBM E-score” value is reported as 0.328. For ACCTCCTG, the “PBM E-score” value was -0.231. AAACTCGG was tested, and the “PBM E-score” value was 0.149. For CCAGCCAG, the “PBM E-score” value was -0.13. AGATATTA was tested, and the “PBM E-score” value was -0.0063. In the case of TACCTTCA, the “PBM E-score” value is reported as -0.0237. For AGACGCCA, the “PBM E-score” value was -0.111. GCGATCCA was tested, and the “PBM E-score” value was 0.226. In the case of CGACGCCC, the “PBM E-score” value is reported as 0.0822. ACCTGGGG was tested, and the “PBM E-score” value was -0.265. With CCGCTTAA the “PBM E-score” value was 0.0585. AGGCTATA was tested, and the “PBM E-score” value was -0.18. With GGACTGGA the “PBM E-score” value was -0.113. TAAGAGTA was tested, and the “PBM E-score” value was 0.0104. For CCAGAGGC, the “PBM E-score” value was -0.141. In the case of CTGCATTA, the “PBM E-score” value is reported as -0.0698. In the case of CATGATCA, the “PBM E-score” value is reported as 0.117. In the case of ATTTACAG, the “PBM E-score” value is reported as 0.0132. With AAGTGTCT the “PBM E-score” value was 0.138. AAAGAGTC was tested, and the “PBM E-score” value was -0.0807. For GCACCGCA, the “PBM E-score” value was -0.0696. With ACAGATTC the “PBM E-score” value was 0.0398. In the case of GTACATAA, the “PBM E-score” value is reported as -0.124. For AGGTGAAG, the “PBM E-score” value was 0.0768. With TGTCGACA the “PBM E-score” value was -0.135. With AAGGAATT the “PBM E-score” value was -0.0857. In the case of ATCGGCAA, the “PBM E-score” value is reported as -0.0754. For ACTGCAGC, the “PBM E-score” value was -0.021. With ACCGCCAC the “PBM E-score” value was -0.117. GCCGCCCC was tested, and the “PBM E-score” value was -0.0098. For CTGCTGCC, the “PBM E-score” value was -0.149. In the case of ATCTCTTA, the “PBM E-score” value is reported as 0.0974. With GGTAGACA the “PBM E-score” value was -0.0266. ATGTGCAC was tested, and the “PBM E-score” value was 0.0387. AGAGTCCC was tested, and the “PBM E-score” value was -0.122. AAGCAGCT was tested, and the “PBM E-score” value was 0.0174. In the case of ACGAACGG, the “PBM E-score” value is reported as 0.0256. CAAGCGAG was tested, and the “PBM E-score” value was 0.0589. In the case of CATCCCCA, the “PBM E-score” value is reported as 0.0686. With GCATAGAA the “PBM E-score” value was 0.0602. With AATAGAGA the “PBM E-score” value was -0.0214. CATTAATA was tested, and the “PBM E-score” value was 0.155. With ACGTCTCG the “PBM E-score” value was -0.0367. GTGGAGTA was tested, and the “PBM E-score” value was 0.0386. ACCCAGTA was tested, and the “PBM E-score” value was -0.0366. AACCGTGG was tested, and the “PBM E-score” value was -0.16. CCGCGCGC was tested, and the “PBM E-score” value was 0.236. AAGAGGCT was tested, and the “PBM E-score” value was -0.243. In the case of ACATCTTC, the “PBM E-score” value is reported as -0.00782. For GGTCGGCA, the “PBM E-score” value was -0.049. For TCCCTAGA, the “PBM E-score” value was 0.0823. In the case of GATCGCGC, the “PBM E-score” value is reported as 0.0895. In the case of CGTTCATA, the “PBM E-score” value is reported as -0.0309. With CAACCTGA the “PBM E-score” value was -0.0742. CATGCCGC was tested, and the “PBM E-score” value was 0.155. For CACGATAA, the “PBM E-score” value was 0.106. In the case of GAGTTTGA, the “PBM E-score” value is reported as 0.0996. With ACCGTTAA the “PBM E-score” value was -0.00716. For CATATACG, the “PBM E-score” value was 0.00262. In the case of ACCTGGCC, the “PBM E-score” value is reported as 0.177. With ACGGAAAC the “PBM E-score” value was -0.0771. CCTGGGCG was tested, and the “PBM E-score” value was -0.0539. For GGAGCTCC, the “PBM E-score” value was -0.0329. In the case of AACAAGGA, the “PBM E-score” value is reported as 0.175. For CGAGTGCC, the “PBM E-score” value was -0.134. With ATTTATCG the “PBM E-score” value was 0.0781. With CCTACCAG the “PBM E-score” value was -0.121. For GCATACTA, the “PBM E-score” value was 0.0455. CCTAGCTA was tested, and the “PBM E-score” value was -0.0696. With CACATTTA the “PBM E-score” value was -0.0384. For CAGAAAGA, the “PBM E-score” value was 0.0955. In the case of CCGGGTCA, the “PBM E-score” value is reported as -0.156. In the case of TGAAATCA, the “PBM E-score” value is reported as 0.183. ACTTGAAA was tested, and the “PBM E-score” value was -0.108. In the case of CCCATTCA, the “PBM E-score” value is reported as 0.199. In the case of ACCGATGA, the “PBM E-score” value is reported as -0.157. For ATACAACC, the “PBM E-score” value was -0.00323. CGTTTGGC was tested, and the “PBM E-score” value was -0.123. For CACGTAGA, the “PBM E-score” value was 0.115. In the case of ATGGCCGC, the “PBM E-score” value is reported as -0.107. AGGTTGTG was tested, and the “PBM E-score” value was -0.0889. With CGACTAAC the “PBM E-score” value was 0.0392. GAACCCCA was tested, and the “PBM E-score” value was 0.26. CGGTACAG was tested, and the “PBM E-score” value was 0.00173. CCGATCTC was tested, and the “PBM E-score” value was -0.0618. For AGTGAATC, the “PBM E-score” value was 0.0226. In the case of AAGGACCT, the “PBM E-score” value is reported as 0.0061. In the case of CGGTTAAG, the “PBM E-score” value is reported as -0.139. In the case of GAATCCCC, the “PBM E-score” value is reported as -0.0968. With CACATCCG the “PBM E-score” value was 0.113. With GCAAGAGC the “PBM E-score” value was 0.103. With CGATGACG the “PBM E-score” value was -0.277. ACTCAGTC was tested, and the “PBM E-score” value was -0.0974. For GCCAGTCA, the “PBM E-score” value was -0.116. For GCCCTCTA, the “PBM E-score” value was -0.222. In the case of AGCATAAT, the “PBM E-score” value is reported as 0.132. In the case of ACGCTCAG, the “PBM E-score” value is reported as -0.148. GCAGGGCA was tested, and the “PBM E-score” value was -0.0314.
